Results are given in words; binding and its absence hold for the method and conditions named. Binding seen in cells or lysates may run through a third protein. These calls come from enrichment with a bait or labelling near it, and not all partners need be listed.
Target: LMF1-HA (Lasso Maintenance Factor 1, HA-tagged) (Toxoplasma gondii)
Assay: proximity labelling; Biotinylation by Antibody Recognition (BAR) in LMF1-HA parasites: fixed, permeabilised, primary antibody and HRP-conjugated secondary antibody, biotin phenol and hydrogen peroxide; streptavidin beads, mass spectrometry; parental strain as control

B1: microtubule-associated protein SPM2 (protein, UniProt S8GR18 1-357)
chain: MALPLDAWATAAHGSKAYVARSADVSRGACFSPAGVTRVSHQGIEPARPAGVSSRRLTQLRLAMSQQPEDRAHAPRGPTAYSCTALRDNVNEILRSATIPRDTDPVAAVLDRKRVDDYAGMRSDGINELRTPSHRWSAEVGKKRGLMTKNESVFVSDVLEHHGRPIDDSPEFQHPRVAAYLQQQCKPKCRSLQRHYGPDELHKAFYTKFEVVDKTTGRTEIMTARRPGSAAAIISLCNFDAYSTRSHKATSAQKQVSNIESTPLGLVPRKGAELPHKPSFTQTAASVCMKRSQLRCQDSWLTPSSDAPTIRHLGQSRRHVALPWLHRPTNRILQHLPQPRVQSRLVCQVDHAKKSPL
- binding: binds

From PMC11486366
